In patent US10159670B2, “Methods of diagnosing and treating motor neuron diseases and other cellular stress-related diseases” (priority 2012, dated 2018):

Assays:
[1] = tested on: NSC-34 cells transfected with FUS R495X, TDP-43 A315T or SOD1 G93A; test: Ratio of pre-miRNA to miRNA levels in NSC-34 cells transfected with ALS-causing mutants; type: cell-based; settings: 100 μM for 72 hrs
[2] = tested on: TDP-43 A315T mouse model of ALS; settings: 200 mg/kg-bodyweight/day

Q: Which results are given for `CCn1cc(C(=O)O)c(=O)c2cc(F)c(N3CCNCC3)nc21` [Enoxacin]?
A: ratio of pre-miRNAs to miRNAs [1]: ameliorated; Rotarod performance on day 62 relative to day 48 [2]: improved performance
